The values that follow come from patent US10064890B2, “Amorphous calcium carbonate for the treatment of calcium malabsorption and metabolic bone disorders” (AMORPHICAL LTD, priority 2011, dated 2018).

A short description of this data set: Trial 6: body weight and food consumption. In kind it is in vivo, Sprague Dawley rats. To be noted: OVX rats, recorded weekly.

Regarding `O=C([O-])[O-].[Ca+2]` [CCC, crystalline calcium carbonate], the Mean food consumption was determined as 12.9 g/day.
